The values that follow come from article PMC1079787.

This assay has as its target T1, proteinA/[His]6-tagged Trf4p (S. cerevisiae) (UniProt P53632).
T1 sequence: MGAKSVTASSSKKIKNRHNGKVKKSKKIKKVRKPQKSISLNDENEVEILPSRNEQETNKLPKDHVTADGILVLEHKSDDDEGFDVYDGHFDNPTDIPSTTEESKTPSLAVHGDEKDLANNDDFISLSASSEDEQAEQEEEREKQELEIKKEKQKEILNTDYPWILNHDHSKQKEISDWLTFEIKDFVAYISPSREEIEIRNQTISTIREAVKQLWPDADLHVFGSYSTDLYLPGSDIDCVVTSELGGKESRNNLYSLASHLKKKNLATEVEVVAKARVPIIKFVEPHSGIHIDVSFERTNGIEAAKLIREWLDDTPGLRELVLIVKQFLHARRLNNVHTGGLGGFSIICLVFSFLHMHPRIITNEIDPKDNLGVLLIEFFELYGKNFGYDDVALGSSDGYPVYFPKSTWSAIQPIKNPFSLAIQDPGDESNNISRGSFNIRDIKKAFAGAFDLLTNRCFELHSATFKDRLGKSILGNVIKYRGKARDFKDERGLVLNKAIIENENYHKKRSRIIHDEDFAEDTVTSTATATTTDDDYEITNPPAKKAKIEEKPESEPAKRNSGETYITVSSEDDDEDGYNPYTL
The assay can be described thus: affinity purification with mass spectrometry; proteinA/[His]6-tagged Trf4p purified from yeast extract on IgG Sepharose and Ni2+-NTA agarose; SDS-PAGE, Colloidal Coomassie bands identified by MS-MS.

No constants are given. Whether binding was seen depends on the method and setting. Binding seen in cells or lysates may run through a third protein. These calls come from enrichment with a bait or labelling near it, and not all partners need be listed. Sequences can lack the tags named with a protein.

B1: Hul4p (protein, UniProt P40985 1-892)
chain: MVSLFDKLNAKKDGRDGSVSKELLSHSVAHTKNRLPKSGRRTSERSLAASVKDGSCSNSKSNKRNSSASVSGEEDKSCLISLNCLCCGVPLRFPASITKFRCSACQVTVIVKEPEINSNLESSTHISCTLEGLQMVVRRCHDDLQRLKKTGILDKERKGLIFQPVITYLLDRFHDVSILNRSFLVHDGGKNIKMLNYEVLQRFYSILSNLPTRKPYYSMLCCCNDLLKRITINKGENLQILQYRWLLIILNIPTIRTCLIRDRKSKNVFETQQIRAVSYELAKRCIGYLSNLSTKTSQQLIQSLRRTPTDNFSYQVEILNLYINFQFSRLLSNELSNRTAKNNVKPEDEMRSRLRRHHTTGHEFLSTRPISAQSNDKQGSGFTHPVNNKMKFKFFQYEEDWHIHSAAKLTFIYYVANTRRNGRGALSIQSFYNITLDFIDYKQDFDHWRGVAQKTKMNQLIEEWGNSTTKKCFSFCKYPFILSLGIKISIMEYEIRRIMEHEAEQAFLISLDKGKSVDVYFKIKVRRDVISHDSLRCIKEHQGDLLKSLRIEFVNEPGIDAGGLRKEWFFLLTKSLFNPMNGLFIYIKESSRSWFAIDPPNFDKSKGKNSQLELYYLFGVVMGLAIFNSTILDLQFPKALYKKLCSEPLSFEDYSELFPETSRNLIKMLNYTEDNFEDVFSLTFETTYRNNNWILNDSKSSKEYVTVELCENGRNVPITQSNKHEFVMKWVEFYLEKSIEPQYNKFVSGFKRVFAECNSIKLFNSEELERLVCGDEEQTKFDFKSLRSVTKYVGGFSDDSRAVCWFWEIIESWDYPLQKKLLQFVTASDRIPATGISTIPFKISLLGSHDSDDLPLAHTCFNEICLWNYSSKKKLELKLLWAINESEGYGFR
With B1, the binding result is recorded as “binds”.
